Source: patent US20130023541A1, “VOLTAGE-GATED SODIUM CHANNEL BLOCKERS” (Glaxo Group Limited, priority 2010, published 2013)
Structures can show the parent of a compound that is named as a salt. Some entries share one result that the patent states for a list of compounds. For part of these data: At least one structure is not confirmed: it was looked up by name or label, or the drawing left a doubt.

The chains behind the UniProt entries cited, without tags or fusion partners.
UniProt Q9NY46, whole entry: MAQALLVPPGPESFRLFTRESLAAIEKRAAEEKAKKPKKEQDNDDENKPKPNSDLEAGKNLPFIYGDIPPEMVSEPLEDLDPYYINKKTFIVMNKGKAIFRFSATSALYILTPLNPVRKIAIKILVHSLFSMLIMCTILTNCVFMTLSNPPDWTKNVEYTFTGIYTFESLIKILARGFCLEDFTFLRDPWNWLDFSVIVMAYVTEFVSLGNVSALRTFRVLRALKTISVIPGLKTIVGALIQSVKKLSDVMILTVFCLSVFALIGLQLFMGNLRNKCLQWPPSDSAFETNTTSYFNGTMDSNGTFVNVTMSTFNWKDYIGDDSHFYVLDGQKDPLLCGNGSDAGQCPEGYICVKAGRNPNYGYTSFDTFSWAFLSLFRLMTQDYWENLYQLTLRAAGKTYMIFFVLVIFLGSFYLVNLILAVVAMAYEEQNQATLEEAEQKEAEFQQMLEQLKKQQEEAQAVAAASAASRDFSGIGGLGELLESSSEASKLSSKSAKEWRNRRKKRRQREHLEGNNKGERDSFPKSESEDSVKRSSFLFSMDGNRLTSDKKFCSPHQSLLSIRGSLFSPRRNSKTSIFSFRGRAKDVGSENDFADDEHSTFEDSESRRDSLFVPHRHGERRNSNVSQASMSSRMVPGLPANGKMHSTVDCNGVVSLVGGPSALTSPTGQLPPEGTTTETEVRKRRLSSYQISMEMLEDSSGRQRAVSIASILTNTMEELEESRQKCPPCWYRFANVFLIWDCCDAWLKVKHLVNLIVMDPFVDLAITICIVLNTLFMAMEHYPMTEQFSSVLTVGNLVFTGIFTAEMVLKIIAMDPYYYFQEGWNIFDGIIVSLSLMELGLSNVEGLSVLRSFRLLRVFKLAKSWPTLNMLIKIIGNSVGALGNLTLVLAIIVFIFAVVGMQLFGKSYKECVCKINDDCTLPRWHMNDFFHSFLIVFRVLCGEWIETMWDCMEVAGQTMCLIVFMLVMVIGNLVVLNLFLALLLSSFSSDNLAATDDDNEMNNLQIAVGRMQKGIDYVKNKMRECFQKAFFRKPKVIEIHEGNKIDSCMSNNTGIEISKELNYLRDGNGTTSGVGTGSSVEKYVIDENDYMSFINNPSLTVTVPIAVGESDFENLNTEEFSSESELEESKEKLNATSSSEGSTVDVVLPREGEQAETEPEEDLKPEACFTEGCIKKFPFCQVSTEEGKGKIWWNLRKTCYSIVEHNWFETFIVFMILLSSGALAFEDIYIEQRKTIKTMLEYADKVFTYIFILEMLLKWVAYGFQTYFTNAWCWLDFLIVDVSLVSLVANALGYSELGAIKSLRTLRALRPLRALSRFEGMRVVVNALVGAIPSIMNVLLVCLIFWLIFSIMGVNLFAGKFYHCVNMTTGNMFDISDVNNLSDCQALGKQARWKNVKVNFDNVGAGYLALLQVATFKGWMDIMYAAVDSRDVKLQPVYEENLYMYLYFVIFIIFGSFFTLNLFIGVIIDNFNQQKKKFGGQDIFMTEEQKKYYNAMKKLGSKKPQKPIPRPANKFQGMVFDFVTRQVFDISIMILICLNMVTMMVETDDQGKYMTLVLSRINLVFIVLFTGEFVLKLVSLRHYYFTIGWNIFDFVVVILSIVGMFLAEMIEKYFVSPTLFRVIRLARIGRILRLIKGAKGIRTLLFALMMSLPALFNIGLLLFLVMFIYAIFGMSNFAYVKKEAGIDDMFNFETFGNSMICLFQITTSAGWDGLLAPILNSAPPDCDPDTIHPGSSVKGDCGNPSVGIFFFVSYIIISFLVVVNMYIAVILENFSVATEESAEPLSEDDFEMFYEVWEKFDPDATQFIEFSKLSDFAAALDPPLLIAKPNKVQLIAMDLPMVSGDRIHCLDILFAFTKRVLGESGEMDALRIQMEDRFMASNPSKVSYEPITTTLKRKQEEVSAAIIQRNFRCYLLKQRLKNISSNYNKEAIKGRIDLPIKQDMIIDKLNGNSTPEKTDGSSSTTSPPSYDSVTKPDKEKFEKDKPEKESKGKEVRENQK
UniProt Q15858, whole entry: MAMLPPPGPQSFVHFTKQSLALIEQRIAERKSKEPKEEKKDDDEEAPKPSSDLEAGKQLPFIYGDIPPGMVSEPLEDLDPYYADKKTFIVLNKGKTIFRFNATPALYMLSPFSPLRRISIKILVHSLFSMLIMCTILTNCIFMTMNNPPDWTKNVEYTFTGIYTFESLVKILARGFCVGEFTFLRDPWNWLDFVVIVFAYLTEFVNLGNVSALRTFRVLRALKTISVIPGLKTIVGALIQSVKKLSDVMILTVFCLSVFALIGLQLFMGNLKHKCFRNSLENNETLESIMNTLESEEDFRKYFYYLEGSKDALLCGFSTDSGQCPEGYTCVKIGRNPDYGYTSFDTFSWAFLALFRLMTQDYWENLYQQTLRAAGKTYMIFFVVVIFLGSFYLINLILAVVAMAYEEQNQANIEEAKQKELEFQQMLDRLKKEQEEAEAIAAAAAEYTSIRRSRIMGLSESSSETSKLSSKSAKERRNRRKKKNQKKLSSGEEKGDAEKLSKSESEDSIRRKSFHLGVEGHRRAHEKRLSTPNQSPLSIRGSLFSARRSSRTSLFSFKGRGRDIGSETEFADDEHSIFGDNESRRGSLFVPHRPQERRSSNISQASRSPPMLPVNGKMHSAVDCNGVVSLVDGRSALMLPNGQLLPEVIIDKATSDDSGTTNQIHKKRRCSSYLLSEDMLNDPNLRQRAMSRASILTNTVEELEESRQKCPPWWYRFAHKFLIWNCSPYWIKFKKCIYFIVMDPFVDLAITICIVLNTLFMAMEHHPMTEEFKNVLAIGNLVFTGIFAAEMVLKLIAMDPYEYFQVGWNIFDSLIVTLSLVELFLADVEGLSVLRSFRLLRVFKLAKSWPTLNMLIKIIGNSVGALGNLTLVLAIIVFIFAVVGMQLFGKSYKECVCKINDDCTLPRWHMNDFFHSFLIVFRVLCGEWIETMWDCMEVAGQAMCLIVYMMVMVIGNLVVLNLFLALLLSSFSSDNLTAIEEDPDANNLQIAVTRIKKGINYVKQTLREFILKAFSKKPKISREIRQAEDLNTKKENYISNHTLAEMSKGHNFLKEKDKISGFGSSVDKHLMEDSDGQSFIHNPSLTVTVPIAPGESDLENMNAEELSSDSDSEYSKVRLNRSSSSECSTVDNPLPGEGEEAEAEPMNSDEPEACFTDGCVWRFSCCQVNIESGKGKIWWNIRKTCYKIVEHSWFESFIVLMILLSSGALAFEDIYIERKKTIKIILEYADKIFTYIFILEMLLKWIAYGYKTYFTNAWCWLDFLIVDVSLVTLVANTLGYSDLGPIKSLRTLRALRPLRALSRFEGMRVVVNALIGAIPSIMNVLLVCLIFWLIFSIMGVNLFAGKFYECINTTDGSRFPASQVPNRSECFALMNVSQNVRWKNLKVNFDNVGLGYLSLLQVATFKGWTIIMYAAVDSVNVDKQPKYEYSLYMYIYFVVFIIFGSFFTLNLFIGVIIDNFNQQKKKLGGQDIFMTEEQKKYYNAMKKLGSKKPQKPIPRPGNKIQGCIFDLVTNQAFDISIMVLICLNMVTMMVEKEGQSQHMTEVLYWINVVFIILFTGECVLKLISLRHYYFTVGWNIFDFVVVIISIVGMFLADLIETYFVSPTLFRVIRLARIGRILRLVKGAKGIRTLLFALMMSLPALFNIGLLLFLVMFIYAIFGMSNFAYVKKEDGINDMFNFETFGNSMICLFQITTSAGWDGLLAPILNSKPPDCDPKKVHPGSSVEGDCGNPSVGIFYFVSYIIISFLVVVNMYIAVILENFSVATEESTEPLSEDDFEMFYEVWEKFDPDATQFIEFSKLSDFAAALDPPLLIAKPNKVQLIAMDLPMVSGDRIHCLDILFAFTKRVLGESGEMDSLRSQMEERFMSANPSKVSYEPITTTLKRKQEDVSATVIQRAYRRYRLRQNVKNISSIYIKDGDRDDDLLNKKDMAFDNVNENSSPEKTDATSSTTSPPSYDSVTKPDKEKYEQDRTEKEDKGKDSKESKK

Key:
[1] = biological target: T1, hNaV1.3 channels (Homo sapiens, UniProt Q9NY46); test: Use-dependent block of hNaV1.3 currents, IonWorks Quattro planar array electrophysiology; assay type: cell-based; conditions: concentration producing 15% use-dependent inhibition, 10th versus 1st depolarizing pulse, 10 Hz, CHO cells
T1 construct: expressed in transfected cells

[2] = biological target: NaV 1.7 (Homo sapiens, UniProt Q15858); test: Use-dependent block of NaV1.7 currents, IonWorks Quattro planar array electrophysiology; assay type: cell-based; conditions: concentration producing 15% use-dependent inhibition, 10th versus 1st depolarizing pulse, 10 Hz

| SMILES | use-dependent pUD15 against NaV1.3 [1] | use-dependent pUD15 against NaV1.7 [2] |
| --- | --- | --- |
| CCN(Cc1ccc(CN2CCN(c3ncccc3C(=O)OC(C)C)CC2)cc1)Cc1ccc(CN2CCN(c3ncccc3C(=O)OC(C)C)CC2)cc1 [Example 538, Bis(1-methylethyl)2,2′-[(ethylimino)bis(methanediylbenzene-4,1-diylmethanediyl-4,1-piperazinediyl)]di(3-pyridinecarboxylate)] | 4-4.99 | 5-5.99 |
| CC(C)OC(=O)c1cccnc1N1CCN(Cc2cccc(Sc3ccccc3)c2)CC1 [Example 35, 1-Methylethyl 2-(4-{[3-(phenylthio)phenyl]methyl}-1-piperazinyl)-3-pyridinecarboxylate hydrochloride] | inactive | 4-4.99 |
| Cc1ccc(-c2cccc(CN3CCN(c4ncccc4C(=O)OC(C)C)CC3)c2)cc1 [Example 349] | 5-5.99 | inactive |
| CC(C)OC(=O)c1cccnc1N1CCN(Cc2ccccc2Oc2ccc(Cl)cc2)CC1 [Example 361] | 4-4.99 | inactive |
| CCN(Cc1ccc(CN2CCN(c3ncccc3C(=O)OC(C)C)CC2)cc1)Cc1ccc(C(=O)OC(C)C)cc1 [Example 481, 1-methylethyl 2-(4-{[4-({ethyl[(4-{[(1-methylethyl)oxy]carbonyl}phenyl)methyl]amino}methyl)phenyl]methyl}-1-piperazinyl)-3-pyridinecarboxylate] | 5-5.99 | 5-5.99 |
| CC(C)OC(=O)c1cccnc1N1CCN(Cc2cccc(Oc3ccc(Cl)c(Cl)c3)c2)CC1 [Example 348] | 4-4.99 | inactive |
| CCCCOc1ccc(COc2ccc(CN3CCN(c4ncccc4C(=O)OC(C)C)CC3)cc2)cc1 [Example 437] | 4-4.99 | – |
| CCN(Cc1ccc(Oc2ccccc2)cc1)[C@H]1CCN(c2ncccc2C(=O)OC(C)C)C1 [Example 177] | 5-5.99 | – |
| CC(C)OC(=O)c1cccnc1N(C)[C@@H]1CCN(Cc2ccc(OCC(N)=O)cc2)C1 [Example 268, 1-methylethyl 2-[[(3R)-1-({4-[(2-amino-2-oxoethyl)oxy]phenyl}methyl)-3-pyrrolidinyl](methyl)amino]-3-pyridinecarboxylate] | 4-4.99 | – |
| COc1ccc(COc2cccc(CN3CCN(c4ncccc4C(=O)OC(C)C)CC3)c2)c(OC)c1 [Example 422] | 4-4.99 | – |
| CCN(Cc1ccc(-c2ccccc2Cl)o1)[C@@H]1CCN(c2ncccc2C(=O)OC(C)C)C1 [Example 45, 1-methylethyl 2-{(3R)-3-[{[5-(2-chlorophenyl)-2-furanyl]methyl}(ethyl)amino]-1-pyrrolidinyl}-3-pyridinecarboxylate] | 4-4.99 | – |
| CC(C)OC(=O)c1cccnc1N(C)[C@@H]1CCN(Cc2cccc(Oc3cc(Cl)cc(Cl)c3)c2)C1 [Example 263, 1-methylethyl 2-[[(3R)-1-({3-[(3,5-dichlorophenyl)oxy]phenyl}methyl)-3-pyrrolidinyl](methyl)amino]-3-pyridinecarboxylate] | 4-4.99 | – |
| CC(C)OC(=O)c1cccnc1N1CCN(Cc2cccc(OCc3ccc([N+](=O)[O-])cc3)c2)CC1 [Example 81] | 5-5.99 | – |
| CCN(Cc1ccc(CN(CC)[C@H]2CCN(c3ncccc3C(=O)OC(C)C)C2)cc1)[C@@H]1CCN(c2ncccc2C(=O)OC(C)C)C1 [Example 531, 1-Methylethyl 2-[(3R)-3-(ethyl{[4-({ethyl[(3S)-1-(3-{[(1-methylethyl)oxy]carbonyl}-2-pyridinyl)-3-pyrrolidinyl]amino}methyl)phenyl]methyl}amino)-1-pyrrolidinyl]-3-pyridinecarboxylate] | 5-5.99 | – |
| CCc1cccc(CN(C)[C@H]2CCN(c3ncccc3C(=O)OC(C)C)C2)c1 [Example 14, 1-Methylethyl 2-{(3S)-3-[[(3-ethylphenyl)methyl](methyl)amino]-1-pyrrolidinyl}-3-pyridinecarboxylate] | 5-5.99 | – |
| CC(C)OC(=O)c1cccnc1N1CCN(Cc2cccc(OCc3cc(Cl)cc(Cl)c3)c2)CC1 [Example 415] | inactive | – |
| CCN(Cc1ccccc1Oc1ccccc1)[C@@H]1CCN(c2nccc(C)c2C(=O)OC(C)C)C1 [Example 294, 1-methylethyl 2-[(3R)-3-(ethyl{[2-(phenyloxy)phenyl]methyl}amino)-1-pyrrolidinyl]-4-methyl-3-pyridinecarboxylate] | 5-5.99 | – |
| CCN(Cc1ccccc1-c1ccc(F)cc1)[C@@H]1CCN(c2ncccc2C(=O)OC(C)C)C1 [Example 472, 1-Methylethyl-2-((3R)-3-{ethyl[(4′-fluoro-2-biphenylyl)methyl]amino}-1-pyrrolidinyl)-3-pyridinecarboxylate] | 5-5.99 | – |

| SMILES | use-dependent pUD15 against NaV1.3 [1] | use-dependent pUD15 against NaV1.7 [2] |
| --- | --- | --- |
| CCN(Cc1ccccc1OC(F)(F)F)[C@@H]1CCN(c2nccc(-c3ccccc3)c2C(=O)OC(C)C)C1 [Example 159, 1-methylethyl 2-{(3R)-3-[ethyl({2-[(trifluoromethyl)oxy]phenyl}methyl)amino]-1-pyrrolidinyl}-4-phenyl-3-pyridinecarboxylate] | inactive | – |
| COc1ccnc(-n2cccc2CN2CCN(c3nccc(C)c3C(=O)OC(C)C)CC2)c1C#N [Example 256] | 5-5.99 | – |
| CCN(Cc1ccc(CN2CCN(c3ncccc3C(=O)OC(C)C)CC2)cc1)Cc1ccccc1F.Cl.Cl [Example 519, 1-methylethyl 2-(4-{[4-({ethyl[(2-fluorophenyl)methyl]amino}methyl)phenyl]methyl}-1-piperazinyl)-3-pyridinecarboxylate dihydrochloride] | 5-5.99 | – |
| CC(C)OC(=O)c1cccnc1N1CCN(Cc2ccc(CNC(=O)c3c(F)cccc3Cl)cc2)CC1 [Example 521, 1-methylethyl2-(4-{[4-({[(2-chloro-6-fluorophenyl)carbonyl]amino}methyl)phenyl]methyl}-1-piperazinyl)-3-pyridinecarboxylate] | 5-5.99 | – |
| CCN(Cc1cccc(-c2ccccc2)c1)[C@@H]1CCN(c2ncccc2C(=O)OC(C)C)C1 [Example 43, 1-methylethyl 2-{(3R)-3-[(3-biphenylylmethyl)(ethyl)amino]-1-pyrrolidinyl}-3-pyridine carboxylate] | 4-4.99 | – |
| CC(C)OC(=O)c1cccnc1N1CCN(Cc2cccc(COc3cccc(C#N)c3)c2)CC1 [Example 216] | 5-5.99 | – |
| CCN(Cc1cccc(F)c1)[C@@H]1CCN(c2nccc(-c3ccccc3)c2C(=O)OC(C)C)C1 [Example 161, 1-methylethyl 2-((3R)-3-{ethyl[(3-fluorophenyl)methyl]amino}-1-pyrrolidinyl)-4-phenyl-3-pyridinecarboxylate] | inactive | – |
| CCN(Cc1ccc(CN(CC)[C@H]2CCN(c3ncccc3C(=O)OC(C)C)C2)cc1)[C@H]1CCN(c2ncccc2C(=O)OC(C)C)C1 [Example 537, Bis(1-methylethyl) 2,2′-{benzene-1,4-diylbis[methanediyl(ethylimino)(3S)-3,1-pyrrolidinediyl]}di(3-pyridinecarboxylate)] | 5-5.99 | – |
| CC(C)OC(=O)c1c(-c2ccccc2)ccnc1N1CCN(Cc2cccc(OCc3ccccc3)c2)CC1 [Example 132, 1-methylethyl 4-phenyl-2-[4-({3-[(phenylmethyl)oxy]phenyl}methyl)-1-piperazinyl]-3-pyridinecarboxylate] | inactive | – |
| Cc1cccc(COc2cccc(CN3CCN(c4ncccc4C(=O)OC(C)C)CC3)c2)c1 [Example 85] | 5-5.99 | – |
| COc1ccc(OC)c(COc2cccc(CN3CCN(c4ncccc4C(=O)OC(C)C)CC3)c2)c1 [Example 421] | inactive | – |
| CC(C)OC(=O)c1cccnc1OC[C@@H]1CCCN1Cc1cccc(CN2CCC[C@H]2COc2ncccc2C(=O)OC(C)C)c1 [Example 532, Bis(1-methylethyl) 2,2′-{benzene-1,3-diylbis[methanediyl(2S)-1,2-pyrrolidinediylmethanediyloxy]}di(3-pyridinecarboxylate)] | inactive | – |
| CCN(Cc1cccc(CN(CC)[C@@H]2CCN(c3ncccc3C(=O)OC(C)C)C2)c1)[C@@H]1CCN(c2ncccc2C(=O)OC(C)C)C1 [Example 530, Bis(1-methylethyl) 2,2′-{benzene-1,3-diylbis[methanediyl(ethylimino)(3R)-3,1-pyrrolidinediyl]}i(3-pyridinecarboxylate)] | 5-5.99 | – |
| COc1ccc(COc2ccc(CN3CCN(c4ncccc4C(=O)OC(C)C)CC3)cc2)c(OC)c1 [Example 461] | 5-5.99 | – |
| CC(C)OC(=O)c1cccnc1N1CCN(Cc2ccc(OCc3cccc(Cl)c3)cc2)CC1 [Example 425] | 5-5.99 | – |
| COc1ccc(COc2cccc(CN3CCN(c4ncccc4C(=O)OC(C)C)CC3)c2)cc1 [Example 419] | 5-5.99 | – |
| Cc1ccccc1COc1ccc(CN2CC[C@@H](N(C)c3ncccc3C(=O)OC(C)C)C2)cc1 [Example 267, 1-methylethyl 2-(methyl-{(3R)-1-[(4-{[(2-methylphenyl)methyl]oxy}phenyl)methyl]-3-pyrrolidinyl}amino)-3-pyridinecarboxylate] | 5-5.99 | – |
| COC(=O)c1ccc(COc2ccc(CN3CC[C@@H](N(C)c4ncccc4C(=O)OC(C)C)C3)cc2)cc1 [Example 269, 1-methylethyl 2-{methyl[(3R)-1-({4-[({4-[(methyloxy)carbonyl]phenyl}methyl)oxy]phenyl}methyl)-3-pyrrolidinyl]amino}-3-pyridinecarboxylate] | 5-5.99 | – |
